Measurements published in the supplement of paper PMC10849652.
Some of the results follow.

By UniProt entry, the sequences of proteins in these tests, tags left out. Where a name states a change or a piece, a line headed by the entry shows the natural chain unless it says otherwise.
UniProt Q8TEA7: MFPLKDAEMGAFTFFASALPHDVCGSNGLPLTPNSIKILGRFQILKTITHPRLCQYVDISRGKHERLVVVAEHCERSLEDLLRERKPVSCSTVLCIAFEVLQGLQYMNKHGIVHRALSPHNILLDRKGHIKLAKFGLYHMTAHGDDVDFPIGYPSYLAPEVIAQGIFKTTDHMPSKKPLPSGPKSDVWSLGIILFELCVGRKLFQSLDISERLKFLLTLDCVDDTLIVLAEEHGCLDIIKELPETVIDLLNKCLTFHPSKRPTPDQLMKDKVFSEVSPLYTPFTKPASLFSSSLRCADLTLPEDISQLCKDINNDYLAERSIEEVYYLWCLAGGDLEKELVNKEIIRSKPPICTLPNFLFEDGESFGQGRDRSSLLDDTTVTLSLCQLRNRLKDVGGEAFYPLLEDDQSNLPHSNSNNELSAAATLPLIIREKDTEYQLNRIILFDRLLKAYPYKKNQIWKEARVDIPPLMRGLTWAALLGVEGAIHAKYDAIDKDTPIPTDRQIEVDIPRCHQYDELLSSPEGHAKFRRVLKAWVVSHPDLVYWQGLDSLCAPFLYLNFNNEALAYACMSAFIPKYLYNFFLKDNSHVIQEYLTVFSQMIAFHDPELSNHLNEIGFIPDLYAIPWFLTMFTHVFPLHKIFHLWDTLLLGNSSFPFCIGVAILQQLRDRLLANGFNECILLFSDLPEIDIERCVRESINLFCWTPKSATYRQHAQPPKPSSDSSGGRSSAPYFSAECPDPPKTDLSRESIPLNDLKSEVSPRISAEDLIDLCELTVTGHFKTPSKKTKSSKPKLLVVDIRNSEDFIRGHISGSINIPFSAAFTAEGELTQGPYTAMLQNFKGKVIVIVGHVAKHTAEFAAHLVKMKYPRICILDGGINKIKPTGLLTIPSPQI
UniProt Q5JUR7: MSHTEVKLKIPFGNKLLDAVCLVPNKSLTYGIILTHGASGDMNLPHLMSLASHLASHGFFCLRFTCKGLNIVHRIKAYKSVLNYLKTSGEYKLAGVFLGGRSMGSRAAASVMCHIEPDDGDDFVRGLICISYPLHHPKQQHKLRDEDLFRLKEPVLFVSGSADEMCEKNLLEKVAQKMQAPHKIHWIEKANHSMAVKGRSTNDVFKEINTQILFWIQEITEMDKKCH
UniProt Q96EI5: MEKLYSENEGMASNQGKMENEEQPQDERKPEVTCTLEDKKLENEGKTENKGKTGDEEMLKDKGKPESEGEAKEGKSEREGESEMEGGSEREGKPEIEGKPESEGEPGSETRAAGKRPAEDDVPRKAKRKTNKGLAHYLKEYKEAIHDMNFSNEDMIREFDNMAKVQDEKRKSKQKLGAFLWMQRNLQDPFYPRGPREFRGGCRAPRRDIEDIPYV
UniProt Q8NHU6: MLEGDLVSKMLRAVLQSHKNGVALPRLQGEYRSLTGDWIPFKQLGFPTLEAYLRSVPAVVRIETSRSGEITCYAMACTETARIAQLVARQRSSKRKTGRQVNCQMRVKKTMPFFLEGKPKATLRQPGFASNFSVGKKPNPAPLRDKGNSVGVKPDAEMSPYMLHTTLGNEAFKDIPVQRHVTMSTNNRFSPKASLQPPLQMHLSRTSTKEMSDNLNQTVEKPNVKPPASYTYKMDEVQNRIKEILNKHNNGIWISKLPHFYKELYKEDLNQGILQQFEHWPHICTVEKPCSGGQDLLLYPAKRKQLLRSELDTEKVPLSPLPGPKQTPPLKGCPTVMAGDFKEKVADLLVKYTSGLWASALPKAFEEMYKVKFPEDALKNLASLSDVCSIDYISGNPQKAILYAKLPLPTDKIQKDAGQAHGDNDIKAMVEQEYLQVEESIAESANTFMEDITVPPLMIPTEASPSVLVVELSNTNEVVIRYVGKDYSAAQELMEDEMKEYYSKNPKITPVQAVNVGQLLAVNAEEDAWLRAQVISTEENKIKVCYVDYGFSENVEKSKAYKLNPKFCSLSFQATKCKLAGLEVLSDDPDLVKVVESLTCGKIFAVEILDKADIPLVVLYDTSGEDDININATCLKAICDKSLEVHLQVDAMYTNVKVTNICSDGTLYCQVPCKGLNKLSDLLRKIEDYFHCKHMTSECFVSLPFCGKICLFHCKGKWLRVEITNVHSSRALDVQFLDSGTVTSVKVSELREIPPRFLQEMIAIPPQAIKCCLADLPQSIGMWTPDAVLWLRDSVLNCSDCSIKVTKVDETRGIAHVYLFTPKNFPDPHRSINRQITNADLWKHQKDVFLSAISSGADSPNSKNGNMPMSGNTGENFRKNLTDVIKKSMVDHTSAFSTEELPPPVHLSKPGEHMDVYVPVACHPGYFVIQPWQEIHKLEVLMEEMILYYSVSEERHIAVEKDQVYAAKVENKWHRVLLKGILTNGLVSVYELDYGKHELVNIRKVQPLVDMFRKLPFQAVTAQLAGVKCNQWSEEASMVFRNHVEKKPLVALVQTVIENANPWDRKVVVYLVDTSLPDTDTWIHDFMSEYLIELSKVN
UniProt Q14186: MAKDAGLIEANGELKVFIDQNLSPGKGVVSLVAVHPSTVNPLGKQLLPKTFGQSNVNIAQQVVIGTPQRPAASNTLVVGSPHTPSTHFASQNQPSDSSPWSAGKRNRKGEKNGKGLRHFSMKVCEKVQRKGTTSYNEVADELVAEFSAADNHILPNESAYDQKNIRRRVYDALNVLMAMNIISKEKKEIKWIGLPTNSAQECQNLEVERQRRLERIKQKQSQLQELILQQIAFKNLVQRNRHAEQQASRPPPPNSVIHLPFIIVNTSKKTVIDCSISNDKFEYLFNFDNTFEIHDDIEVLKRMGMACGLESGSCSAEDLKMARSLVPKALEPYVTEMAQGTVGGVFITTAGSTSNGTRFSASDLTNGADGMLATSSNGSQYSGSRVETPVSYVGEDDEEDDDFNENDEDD
UniProt Q14188: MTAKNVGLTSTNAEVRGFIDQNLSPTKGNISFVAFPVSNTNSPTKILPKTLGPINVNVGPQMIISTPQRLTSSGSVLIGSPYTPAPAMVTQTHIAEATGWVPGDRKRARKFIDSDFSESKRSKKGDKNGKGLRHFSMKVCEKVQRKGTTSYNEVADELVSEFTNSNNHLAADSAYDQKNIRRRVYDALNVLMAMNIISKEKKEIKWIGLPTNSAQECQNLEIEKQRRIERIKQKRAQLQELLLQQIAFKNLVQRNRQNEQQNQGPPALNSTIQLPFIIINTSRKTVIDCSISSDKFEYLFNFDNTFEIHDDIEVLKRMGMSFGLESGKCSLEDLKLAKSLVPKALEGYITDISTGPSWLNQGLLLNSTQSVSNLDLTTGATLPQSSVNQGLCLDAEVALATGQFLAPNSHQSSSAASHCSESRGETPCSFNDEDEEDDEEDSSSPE
UniProt Q9P2M4: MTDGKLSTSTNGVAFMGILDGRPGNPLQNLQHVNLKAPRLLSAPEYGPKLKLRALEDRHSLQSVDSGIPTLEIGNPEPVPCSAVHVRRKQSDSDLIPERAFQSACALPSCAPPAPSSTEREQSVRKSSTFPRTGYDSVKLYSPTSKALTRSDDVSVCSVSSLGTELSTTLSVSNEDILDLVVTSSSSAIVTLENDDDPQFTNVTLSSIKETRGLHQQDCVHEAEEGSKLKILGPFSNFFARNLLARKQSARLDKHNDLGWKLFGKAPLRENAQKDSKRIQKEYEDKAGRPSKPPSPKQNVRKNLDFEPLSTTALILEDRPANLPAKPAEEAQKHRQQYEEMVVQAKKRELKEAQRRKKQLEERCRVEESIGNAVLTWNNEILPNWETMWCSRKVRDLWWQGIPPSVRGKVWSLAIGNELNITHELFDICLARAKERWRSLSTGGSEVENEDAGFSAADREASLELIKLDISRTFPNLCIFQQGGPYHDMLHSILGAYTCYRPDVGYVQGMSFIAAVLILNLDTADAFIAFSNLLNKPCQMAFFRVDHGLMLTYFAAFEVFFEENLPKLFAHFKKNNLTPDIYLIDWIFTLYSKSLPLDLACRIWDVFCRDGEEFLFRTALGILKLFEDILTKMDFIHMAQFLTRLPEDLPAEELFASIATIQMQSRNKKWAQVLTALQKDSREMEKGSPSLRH
UniProt Q13428: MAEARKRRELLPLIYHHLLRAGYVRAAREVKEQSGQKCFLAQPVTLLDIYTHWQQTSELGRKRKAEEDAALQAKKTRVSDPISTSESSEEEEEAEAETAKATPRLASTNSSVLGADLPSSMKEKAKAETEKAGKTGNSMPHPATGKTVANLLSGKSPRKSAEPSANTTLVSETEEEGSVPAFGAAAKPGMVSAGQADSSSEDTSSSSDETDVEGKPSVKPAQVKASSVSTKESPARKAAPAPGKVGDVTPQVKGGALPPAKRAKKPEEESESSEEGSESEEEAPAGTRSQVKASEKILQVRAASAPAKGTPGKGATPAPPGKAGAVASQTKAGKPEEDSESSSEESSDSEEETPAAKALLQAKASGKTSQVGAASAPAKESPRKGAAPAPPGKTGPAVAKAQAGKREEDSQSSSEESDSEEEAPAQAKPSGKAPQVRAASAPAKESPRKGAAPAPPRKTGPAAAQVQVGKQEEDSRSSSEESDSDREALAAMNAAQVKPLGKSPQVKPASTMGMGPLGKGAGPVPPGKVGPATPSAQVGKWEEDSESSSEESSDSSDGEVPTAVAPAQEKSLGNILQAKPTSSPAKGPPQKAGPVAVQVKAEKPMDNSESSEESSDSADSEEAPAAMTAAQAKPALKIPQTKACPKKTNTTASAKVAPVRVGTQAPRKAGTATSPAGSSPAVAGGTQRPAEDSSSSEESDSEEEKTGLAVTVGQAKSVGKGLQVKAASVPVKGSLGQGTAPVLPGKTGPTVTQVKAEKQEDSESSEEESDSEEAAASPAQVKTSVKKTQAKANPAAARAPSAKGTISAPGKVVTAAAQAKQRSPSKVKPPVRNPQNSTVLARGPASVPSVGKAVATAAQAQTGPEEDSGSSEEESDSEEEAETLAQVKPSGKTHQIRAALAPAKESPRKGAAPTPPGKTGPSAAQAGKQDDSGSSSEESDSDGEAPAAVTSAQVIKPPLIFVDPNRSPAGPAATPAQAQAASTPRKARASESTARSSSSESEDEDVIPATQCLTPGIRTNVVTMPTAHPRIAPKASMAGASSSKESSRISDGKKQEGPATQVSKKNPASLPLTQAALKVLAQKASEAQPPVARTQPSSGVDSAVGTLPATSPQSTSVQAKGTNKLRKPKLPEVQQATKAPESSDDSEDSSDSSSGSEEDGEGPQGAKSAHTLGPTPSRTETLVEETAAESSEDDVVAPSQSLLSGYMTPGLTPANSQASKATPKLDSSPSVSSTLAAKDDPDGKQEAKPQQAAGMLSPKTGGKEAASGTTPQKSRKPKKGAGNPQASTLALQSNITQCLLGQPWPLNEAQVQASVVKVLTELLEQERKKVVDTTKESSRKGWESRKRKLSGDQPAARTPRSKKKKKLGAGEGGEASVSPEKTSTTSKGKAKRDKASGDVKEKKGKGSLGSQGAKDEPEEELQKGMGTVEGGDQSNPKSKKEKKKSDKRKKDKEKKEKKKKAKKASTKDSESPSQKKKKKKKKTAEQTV
UniProt Q9UHQ7: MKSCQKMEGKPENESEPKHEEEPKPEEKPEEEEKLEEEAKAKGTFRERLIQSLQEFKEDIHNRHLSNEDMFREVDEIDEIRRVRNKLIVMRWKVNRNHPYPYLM
UniProt Q15170: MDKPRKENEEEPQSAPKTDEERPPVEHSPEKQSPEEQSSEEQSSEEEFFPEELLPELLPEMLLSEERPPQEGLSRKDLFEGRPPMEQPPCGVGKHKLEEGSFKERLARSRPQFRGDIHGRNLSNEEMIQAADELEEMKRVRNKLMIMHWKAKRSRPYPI
UniProt P19532: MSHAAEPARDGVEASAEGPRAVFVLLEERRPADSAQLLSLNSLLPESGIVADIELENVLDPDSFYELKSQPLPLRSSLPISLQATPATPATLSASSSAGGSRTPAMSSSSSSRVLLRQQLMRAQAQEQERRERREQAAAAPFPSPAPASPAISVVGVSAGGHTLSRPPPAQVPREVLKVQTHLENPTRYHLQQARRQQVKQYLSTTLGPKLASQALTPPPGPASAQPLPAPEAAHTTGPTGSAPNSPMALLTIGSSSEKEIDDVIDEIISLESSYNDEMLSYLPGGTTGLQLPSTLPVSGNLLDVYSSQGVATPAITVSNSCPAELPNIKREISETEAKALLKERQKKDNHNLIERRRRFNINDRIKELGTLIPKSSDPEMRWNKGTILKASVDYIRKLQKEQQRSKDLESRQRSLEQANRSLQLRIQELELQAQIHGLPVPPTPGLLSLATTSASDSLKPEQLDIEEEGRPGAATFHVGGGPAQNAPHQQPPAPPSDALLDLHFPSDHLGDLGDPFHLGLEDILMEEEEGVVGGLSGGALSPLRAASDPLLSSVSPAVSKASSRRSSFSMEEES
UniProt Q96CG3: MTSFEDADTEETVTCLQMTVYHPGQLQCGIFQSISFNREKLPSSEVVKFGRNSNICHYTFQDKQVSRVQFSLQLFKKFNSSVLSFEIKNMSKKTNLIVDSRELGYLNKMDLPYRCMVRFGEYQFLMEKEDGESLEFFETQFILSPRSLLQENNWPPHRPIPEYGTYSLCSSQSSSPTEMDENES

compound: CN1CCN(CCOc2cc(OC3CCOCC3)c3c(Nc4c(Cl)ccc5c4OCO5)ncnc3c2)CC1 [saracatinib]; assay: log2 fold change, soluble protein after heating vs DMSO (PISA); higher = thermal stabilisation; K562 cells, 10 uM, 30 min; active = over 0.2 and 3.5 SD of the protein, either way, in both replicates (recomputed)
Method in brief: (§1)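 K562 cells at 2×10^6 cells/mL were treated for 30 min with 10 μM compound, and aliquots were heated for 3 min over 48°C-58°C before pooling. Extraction used PBS with 0.5% NP-40 at 4°C, and soluble protein was the supernatant after 21,000xg for 90 min, measured by TMTpro 16plex LC-MS/MS with channel sums equalised. Thermal stability values, relative to control samples and from duplicates, are log2 fold changes.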

Row | Target | log2 fold change
1 | TBP (UniProt P20226) | inactive: 0.316
2 | THAP9 (UniProt Q9H5L6) | inactive: 0.039
3 | TBCK (UniProt Q8TEA7) | inactive: 0.073
4 | TEDC2 (UniProt Q7L2K0) | inactive: 0.063
5 | TCP11L1 (UniProt Q9NUJ3) | inactive: 0
6 | TEX30 (UniProt Q5JUR7) | inactive: -0.065
7 | TENM4 (UniProt Q6N022) | inactive: -0.196
8 | TCEAL4 isoform 2 (UniProt Q96EI5) | inactive: -0.028
9 | TBC1D9 (UniProt Q6ZT07) | inactive: -0.041
10 | TC2N (UniProt Q8N9U0) | inactive: -0.215
11 | THEMIS2 (UniProt Q5TEJ8) | inactive: -0.023
12 | TDRD7 (UniProt Q8NHU6) | inactive: -0.012

compound: CN1CCN(c2nc(C3=C(c4c[nH]c5ccccc45)C(=O)NC3=O)c3ccccc3n2)CC1 [sotrastaurin]; assay: as above
Method in brief: as §1

Row | Target | log2 fold change
13 | TFDP1 (UniProt Q14186) | inactive: -0.157
14 | TFDP2 (UniProt Q14188) | inactive: 0.253
15 | TBC1D14 (UniProt Q9P2M4) | inactive: 0.08
16 | TBC1D20 isoform 3 (UniProt Q96BZ9) | inactive: 0.053
17 | TCOF1 isoform 6 (UniProt Q13428) | inactive: -0.094
18 | TCEAL9 (UniProt Q9UHQ7) | inactive: -0.302
19 | TBC1D7 (UniProt Q9P0N9) | inactive: -0.303
20 | TCOF1 isoform 3 (UniProt Q13428) | inactive: 0.326
21 | TEX10 (UniProt Q9NXF1) | inactive: -0.16
22 | TCEAL1 isoform 2 (UniProt Q15170) | inactive: -0.008
23 | TCTN3 (UniProt Q6NUS6) | inactive: 0.081
24 | TFE3 (UniProt P19532) | inactive: -0.416
25 | TIFA (UniProt Q96CG3) | inactive: 0.046

compound: CN1CC[C@H](c2c(O)cc(O)c3c(=O)cc(-c4ccccc4Cl)oc23)[C@H](O)C1 [alvocidib]; assay: as above
Method in brief: as §1

Row | Target | log2 fold change
26 | TCF25 (UniProt Q9BQ70) | inactive: 0.035
27 | TFDP2 (UniProt Q14188) | inactive: -0.053
28 | TFIP11 (UniProt Q9UBB9) | inactive: -0.107
29 | TCF20 (UniProt Q9UGU0) | inactive: 0.145
30 | TLE3 (UniProt Q04726) | inactive: 0.057
31 | THAP12 (UniProt O43422) | inactive: -0.163
32 | TENM4 (UniProt Q6N022) | inactive: 0.051
33 | TBC1D25 (UniProt Q3MII6) | inactive: -0.098
34 | TCEAL1 isoform 2 (UniProt Q15170) | inactive: 0.03
35 | TCAF2 (UniProt A6NFQ2) | inactive: -0.047
36 | TCF3 isoform 2 (UniProt P15923) | inactive: 0.03
37 | TFAP4 (UniProt Q01664) | inactive: 0.087
38 | TIFA (UniProt Q96CG3) | inactive: -0.054
39 | TDRD7 (UniProt Q8NHU6) | inactive: -0.028

compound: CN1CCc2c(c3ccccc3n2Cc2ccc(C(=O)NO)cc2)C1 [Tubastatin A]; assay: as above
Method in brief: as §1

Row | Target | log2 fold change
40 | TCF25 (UniProt Q9BQ70) | inactive: 0.111
41 | TFDP1 (UniProt Q14186) | inactive: -0.099
42 | TBP (UniProt P20226) | inactive: -0.014
43 | TFDP2 (UniProt Q14188) | inactive: -0.016
44 | TBC1D14 (UniProt Q9P2M4) | inactive: -0.015
45 | TCOF1 isoform 6 (UniProt Q13428) | inactive: -0.103
46 | TBCK (UniProt Q8TEA7) | inactive: 0.076
47 | TEDC2 (UniProt Q7L2K0) | inactive: 0.028
48 | TCOF1 isoform 3 (UniProt Q13428) | inactive: 0.054
49 | TEX30 (UniProt Q5JUR7) | inactive: 0.022
50 | TCEAL4 isoform 2 (UniProt Q96EI5) | inactive: 0.029
51 | TCEAL1 isoform 2 (UniProt Q15170) | inactive: 0.015
52 | TCF3 isoform 2 (UniProt P15923) | inactive: 0.108
53 | TET2 (UniProt Q6N021) | inactive: 0.307
54 | TC2N (UniProt Q8N9U0) | inactive: 0.308
55 | TFE3 (UniProt P19532) | inactive: 0.014
56 | TFAP4 (UniProt Q01664) | inactive: 0.038
57 | THEMIS2 (UniProt Q5TEJ8) | inactive: 0.064

compound: CNC(=O)C1=CC=CC=C1NC2=NC(=NC=C2Cl)NC3=C(C=C(C=C3)N4CCOCC4)OC; assay: as above
Method in brief: as §1

Row | Target | log2 fold change
58 | TFDP1 (UniProt Q14186) | inactive: -0.019
59 | TBC1D14 (UniProt Q9P2M4) | inactive: -0.246
60 | TBC1D20 isoform 3 (UniProt Q96BZ9) | inactive: 0.004
61 | TCOF1 isoform 6 (UniProt Q13428) | inactive: -0.149
62 | TBC1D7 (UniProt Q9P0N9) | inactive: 0.098
63 | TBCK (UniProt Q8TEA7) | inactive: -0.041
64 | TCOF1 isoform 3 (UniProt Q13428) | inactive: -0.007
65 | TCP11L1 (UniProt Q9NUJ3) | inactive: -0.131
66 | TEX10 (UniProt Q9NXF1) | inactive: -0.022
67 | TEX30 (UniProt Q5JUR7) | inactive: 0.015
68 | THAP12 (UniProt O43422) | inactive: 0.082
69 | TBC1D25 (UniProt Q3MII6) | inactive: 0.095
70 | TCEAL4 isoform 2 (UniProt Q96EI5) | inactive: -0.058
71 | TBC1D9 (UniProt Q6ZT07) | inactive: -0.037
72 | TCEAL8 (UniProt Q8IYN2) | inactive: -0.08
73 | TDP1 (UniProt Q9NUW8) | inactive: -0.041
74 | TFE3 (UniProt P19532) | inactive: 0.006
75 | TIFA (UniProt Q96CG3) | inactive: 0.133
76 | TDRD7 (UniProt Q8NHU6) | inactive: -0.032
